These are yes or no findings as the source states them, for the method shown. Binding seen in cells or lysates may run through a third protein. A yes stands for co-enrichment or nearness to the bait. Other partners may have been found.
Molecular target: V5-tagged, full-length MAGI3 (in MCF10A cells) (human) (UniProt Q5TCQ9)
Assay: affinity purification with mass spectrometry; affinity purification of V5-tagged full-length MAGI3 from MCF10A cells; IP lysates separated by SDS-PAGE, gel in six sections, LC-MS/MS; common contaminants (CRAPome) subtracted

Amino acid sequences for entries named in this document (tags omitted). A change or cut given only in a name is not applied to a line headed by its entry.
UniProt Q5TCQ9: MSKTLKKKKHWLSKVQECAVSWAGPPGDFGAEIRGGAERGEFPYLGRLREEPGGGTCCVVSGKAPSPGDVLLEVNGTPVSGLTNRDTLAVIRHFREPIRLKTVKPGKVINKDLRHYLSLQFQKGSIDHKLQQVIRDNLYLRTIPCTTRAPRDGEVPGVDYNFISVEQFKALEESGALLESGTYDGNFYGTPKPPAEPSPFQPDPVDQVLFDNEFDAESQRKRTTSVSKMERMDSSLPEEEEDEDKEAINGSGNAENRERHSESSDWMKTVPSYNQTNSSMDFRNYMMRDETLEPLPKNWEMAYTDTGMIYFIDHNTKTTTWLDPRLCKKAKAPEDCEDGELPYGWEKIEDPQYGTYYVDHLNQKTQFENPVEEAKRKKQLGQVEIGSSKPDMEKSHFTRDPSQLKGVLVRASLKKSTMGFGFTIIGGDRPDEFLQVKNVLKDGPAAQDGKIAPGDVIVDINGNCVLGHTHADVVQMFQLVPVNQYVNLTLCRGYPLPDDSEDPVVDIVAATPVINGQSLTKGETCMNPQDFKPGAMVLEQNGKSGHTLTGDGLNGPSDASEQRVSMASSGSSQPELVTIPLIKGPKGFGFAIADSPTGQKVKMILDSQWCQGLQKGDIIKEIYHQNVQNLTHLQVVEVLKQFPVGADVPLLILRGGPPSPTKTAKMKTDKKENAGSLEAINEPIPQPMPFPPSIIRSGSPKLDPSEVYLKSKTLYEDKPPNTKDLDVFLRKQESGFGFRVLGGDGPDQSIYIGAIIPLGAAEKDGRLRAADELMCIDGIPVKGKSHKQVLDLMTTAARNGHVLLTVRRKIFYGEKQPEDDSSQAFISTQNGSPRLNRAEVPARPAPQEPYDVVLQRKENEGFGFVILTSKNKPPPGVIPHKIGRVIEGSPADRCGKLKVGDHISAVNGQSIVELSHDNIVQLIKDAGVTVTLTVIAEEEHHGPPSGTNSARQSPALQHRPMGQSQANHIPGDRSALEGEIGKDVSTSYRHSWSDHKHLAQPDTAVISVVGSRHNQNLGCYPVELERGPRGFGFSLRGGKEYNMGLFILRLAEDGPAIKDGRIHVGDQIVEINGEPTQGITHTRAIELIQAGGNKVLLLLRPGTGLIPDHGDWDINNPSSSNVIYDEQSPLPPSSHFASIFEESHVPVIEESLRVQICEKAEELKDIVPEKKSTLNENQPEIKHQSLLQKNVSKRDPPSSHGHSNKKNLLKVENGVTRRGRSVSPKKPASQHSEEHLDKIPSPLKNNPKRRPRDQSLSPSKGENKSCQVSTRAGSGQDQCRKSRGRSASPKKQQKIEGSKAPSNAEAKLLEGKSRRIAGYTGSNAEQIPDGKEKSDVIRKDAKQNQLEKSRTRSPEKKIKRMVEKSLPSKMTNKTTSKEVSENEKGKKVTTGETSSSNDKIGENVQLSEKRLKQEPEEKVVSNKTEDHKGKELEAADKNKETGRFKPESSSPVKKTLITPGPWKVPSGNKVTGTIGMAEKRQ

binding: binds
B1: SERPINB5 (protein, UniProt P36952 1-375)
chain: MDALQLANSAFAVDLFKQLCEKEPLGNVLFSPICLSTSLSLAQVGAKGDTANEIGQVLHFENVKDVPFGFQTVTSDVNKLSSFYSLKLIKRLYVDKSLNLSTEFISSTKRPYAKELETVDFKDKLEETKGQINNSIKDLTDGHFENILADNSVNDQTKILVVNAAYFVGKWMKKFSESETKECPFRVNKTDTKPVQMMNMEATFCMGNIDSINCKIIELPFQNKHLSMFILLPKDVEDESTGLEKIEKQLNSESLSQWTNPSTMANAKVKLSIPKFKVEKMIDPKACLENLGLKHIFSEDTSDFSGMSETKGVALSNVIHKVCLEITEDGGDSIEVPGARILQHKDELNADHPFIYIIRHNKTRNIIFFGKFCSP

Source: paper PMC4905742
